According to paper PMC11163727:
Results are given in words; binding and its absence hold for the method and conditions named. In cells and extracts the contact can be indirect. A yes stands for co-enrichment or nearness to the bait. Other partners may have been found.

Amino acid sequences for entries named in this document (tags omitted). Residues count along the entry.
UniProt P08174, residues 35-353: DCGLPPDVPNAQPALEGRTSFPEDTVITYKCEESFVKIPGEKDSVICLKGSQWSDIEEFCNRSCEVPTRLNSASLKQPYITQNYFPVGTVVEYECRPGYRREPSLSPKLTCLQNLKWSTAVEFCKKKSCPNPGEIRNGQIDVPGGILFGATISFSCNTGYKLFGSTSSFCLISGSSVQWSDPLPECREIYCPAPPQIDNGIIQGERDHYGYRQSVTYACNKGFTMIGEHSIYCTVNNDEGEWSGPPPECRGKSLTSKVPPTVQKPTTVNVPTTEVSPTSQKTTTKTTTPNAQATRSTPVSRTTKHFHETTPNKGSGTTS
UniProt Q9UDY2: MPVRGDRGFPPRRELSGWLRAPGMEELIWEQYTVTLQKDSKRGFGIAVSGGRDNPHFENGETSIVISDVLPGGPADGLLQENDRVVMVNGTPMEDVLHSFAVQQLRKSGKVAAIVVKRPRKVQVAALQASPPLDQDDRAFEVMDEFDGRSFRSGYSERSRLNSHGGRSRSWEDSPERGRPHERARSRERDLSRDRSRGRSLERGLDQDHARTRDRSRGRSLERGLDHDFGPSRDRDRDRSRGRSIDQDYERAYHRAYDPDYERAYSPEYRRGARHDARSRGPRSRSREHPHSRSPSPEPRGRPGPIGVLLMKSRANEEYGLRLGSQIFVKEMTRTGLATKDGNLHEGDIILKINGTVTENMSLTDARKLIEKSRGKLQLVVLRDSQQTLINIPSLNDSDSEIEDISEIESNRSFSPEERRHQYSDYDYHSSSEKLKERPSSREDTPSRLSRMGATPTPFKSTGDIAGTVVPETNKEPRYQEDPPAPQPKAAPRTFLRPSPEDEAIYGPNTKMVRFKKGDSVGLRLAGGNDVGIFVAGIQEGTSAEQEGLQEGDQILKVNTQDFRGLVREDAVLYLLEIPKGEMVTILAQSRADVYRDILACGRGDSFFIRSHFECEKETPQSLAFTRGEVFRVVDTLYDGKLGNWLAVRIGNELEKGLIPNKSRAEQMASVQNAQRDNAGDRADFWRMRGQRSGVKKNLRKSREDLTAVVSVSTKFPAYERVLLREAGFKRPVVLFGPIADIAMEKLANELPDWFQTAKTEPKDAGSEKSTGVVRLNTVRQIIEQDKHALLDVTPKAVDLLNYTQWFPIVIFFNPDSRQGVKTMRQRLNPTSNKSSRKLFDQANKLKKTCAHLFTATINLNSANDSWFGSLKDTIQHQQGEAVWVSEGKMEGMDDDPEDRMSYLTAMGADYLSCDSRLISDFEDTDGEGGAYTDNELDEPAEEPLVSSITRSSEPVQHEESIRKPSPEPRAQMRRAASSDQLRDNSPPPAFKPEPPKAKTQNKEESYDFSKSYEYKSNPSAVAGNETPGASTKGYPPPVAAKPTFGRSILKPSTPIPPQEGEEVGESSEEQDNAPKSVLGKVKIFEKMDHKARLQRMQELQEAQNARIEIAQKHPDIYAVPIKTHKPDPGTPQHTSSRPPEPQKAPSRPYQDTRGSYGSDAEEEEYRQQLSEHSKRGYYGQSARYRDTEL

Molecular target: CD55 (complement decay-accelerating factor), endogenous in CP70 cells (human (endogenous in CP70)) (UniProt P08174)
Test: affinity purification with mass spectrometry; CD55 immunoprecipitated (3 ug CD55 antibody, overnight 4 C, protein A/G agarose) from the nuclear fraction of CP70 cells (NE-PER kit); SDS-PAGE, in-gel digestion, LC-MS/MS

binding: binds
Substance: Tight Junction Protein 2 (TJP2) (from UniProt Q9UDY2 1-1190)
